# Source: patent US10857167B2, “Use of oligosaccharide compositions to enhance weight gain” (Children's Hospital Medical Center, priority 2015, dated 2020)
# Further values from the same series stand in other lists.
# Test system: distal small bowel gene expression
# Assay: RNA sequencing / transcriptional analysis of small bowel 56 days after ICR (2′-FL signature response)
# Format: in vivo, mouse
# Source text: Luminal small bowel contents were expressed into AllProtect Tissue Reagent (Qiagen Inc, CA). Bacterial DNA was extracted using the AllPrep DNA/RNA Mini Kit (Qiagen Inc, CA), according to kit instructions and prior to sequencing (described below). Small bowel tissue samples for RNA were placed into RNA Later (Life Technologies, NY). RNA extraction was accomplished following Qiagen RNeasy Plus Kit instruction (Qiagen Inc, CA). All nucleic acid samples were then stored at -80 Celsius until sequenced (described below). Transcriptional analysis was carried out on resected and harvested small bowel samples obtained from operated mice taken to 8 weeks. Murine RNA sequencing libraries were prepared from approximately 1.5 μg RNA using the TruSeq RNA Sample Preparation Kit (Illumina, Calif.) and sequenced using the HiSeq 2000 Sequencing System (Illumina, Calif.) with single-end 50 bp reads. Following removal of primers and barcodes, sequences were aligned to the mm10 genome using reference annotations from UCSC (Rosenbloom et al. (2015) Nucleic acids research 43: […]-681) (n=36,186 entities). Aligned reads were quantified and used to compute reads per kilobase per million mapped reads (RPKM); raw counts were then normalized using the DESeq algorithm and each harvested sample was baselined to its own resected sample. A filter was applied to the data, requiring at least three reads in all samples of at least one of the four experimental conditions (n=14,489 entities). The data discussed in this publication have been deposited in NCBI's Gene Expression Omnibus and are accessible through NCBI Gene Expression Omnibus (GEO) Series accession number GSE72590. Edgar et al. (2002) Nucleic acids research 30: 207-210. In order to characterize the impact of 2'-FL supplementation while accounting for the effect of ileoecal resection, a t-test was applied between resected and harvested samples within control and experimental animals. Significance was set at a p-value of ≤0.05 and a fold change of 3, which generated 2,576 differentially regulated entities across two comparisons. Gene set unions and intersections of the control and experimental gene sets were identified through Venn diagrams. From the master list, the gene list specific to animals supplemented with 2'-FL were removed in order to identify genes differentially regulated only by ICR (n=546 entities); this gene set characterizes the adaptive response. Further, the 2'-FL response (n=2,030 entities) was identified by removing the adaptive response signature described above from the master list, leaving only genes regulated by 2'-FL supplementation after ICR which were not found in the non-supplemented adaptive response. Heatmaps were generated using hierarchical clustering with the Pearson's Centered distance metric and the average linkage rule; both entities and samples were clustered. All genomic analyses described above were performed in Strand NGS (Strand Life Sciences, CA). Gene list functional enrichment was initially discovered using ToppFun, a member of the ToppGene Suite. Chen et al. (2009) Nucleic acids research 37: […]-311. No statistical correction was selected. Gene lists were further analyzed using ClueGO, a plugin for Cytoscape designed to decipher functionally grouped gene ontology and pathway annotation networks. Bindea et al. (2009) Bioinformatics 25: 1091-1093. At the time of data analysis, the annotation files were updated from sources to Jan. 1, 2015. “GO Term Fusion” was enabled to manage ontologic term redundancy and network specificity was set to medium. Results were restricted to pathways with p≤0.05 using Benjamini-Hochberg correction and Kappa scoring was set to 0.4. Biocyc annotations were assigned a rectangle, gene ontology biologic processes were assigned an ellipse, and […] annotations were assigned a diamond shape. No meaning was assigned to size or color. […]
smiles,measurement,setting,value
"C[C@@H]1O[C@@H](O[C@H]2[C@H](O[C@H]3[C@H](O)[C@@H](O)C(O)O[C@@H]3CO)O[C@H](CO)[C@H](O)[C@@H]2O)[C@@H](O)[C@H](O)[C@@H]1O (stereo partly drawn) [2′-FL, 2′-fucosyllactose]",Fold Change (Pre- to Post-op),Xcl1,3.202
same,Fold Change (Pre- to Post-op),Xlr,4.095
same,Fold Change (Pre- to Post-op),Zfp2,3.418
same,Fold Change (Pre- to Post-op),Zfp53,3.119
same,Fold Change (Pre- to Post-op),Zfp92,7.306
same,Fold Change (Pre- to Post-op),Znhit3,5.716
same,Fold Change (Pre- to Post-op),gene 4-Mar,−3.709
same,Fold Change (Pre- to Post-op),gene 8-Sep,−3.058
same,Fold Change (Pre- to Post-op),gene 1500004A13Rik,−7.779
same,Fold Change (Pre- to Post-op),gene 2310067B10Rik,−4.412
same,Fold Change (Pre- to Post-op),gene 2410004B18Rik,3.038
same,Fold Change (Pre- to Post-op),gene 2900026A02Rik,−4.697
same,Fold Change (Pre- to Post-op),gene 4833424O15Rik,−4.785
same,Fold Change (Pre- to Post-op),gene 4833432E10Rik,−4.036
same,Fold Change (Pre- to Post-op),gene 4922501C03Rik,−6.352
same,Fold Change (Pre- to Post-op),gene 4930470H14Rik,−5.531
same,Fold Change (Pre- to Post-op),gene 4933417A18Rik,−3.706
same,Fold Change (Pre- to Post-op),gene 5031414D18Rik,−6.733
same,Fold Change (Pre- to Post-op),gene 5330417C22Rik,−6.513
same,Fold Change (Pre- to Post-op),gene 6330408A02Rik,−5.107
same,Fold Change (Pre- to Post-op),gene 6430548M08Rik,−3.559
same,Fold Change (Pre- to Post-op),gene 6530402F18Rik,−4.826
same,Fold Change (Pre- to Post-op),gene 9330159F19Rik,−5.945
same,Fold Change (Pre- to Post-op),gene 9430020K01Rik,−3.69
same,Fold Change (Pre- to Post-op),gene 9530026P05Rik,−4.147
same,Fold Change (Pre- to Post-op),gene 9930021J03Rik,−3.702
same,Fold Change (Pre- to Post-op),gene A4gnt,−3.049
same,Fold Change (Pre- to Post-op),gene A430033K04Rik,−3.457
same,Fold Change (Pre- to Post-op),gene A530020G20Rik,−4.03
same,Fold Change (Pre- to Post-op),gene A630081J09Rik,−4.427
same,Fold Change (Pre- to Post-op),gene AI661453,−4.477
same,Fold Change (Pre- to Post-op),gene Abca3,−5.574
same,Fold Change (Pre- to Post-op),gene Abcc1,−3.364
same,Fold Change (Pre- to Post-op),gene Abcc4,−3.37
same,Fold Change (Pre- to Post-op),gene Abcc9,−4.38
same,Fold Change (Pre- to Post-op),gene Abcd2,−7.23
same,Fold Change (Pre- to Post-op),gene Abl1,−4.067
same,Fold Change (Pre- to Post-op),gene Abl2,−6.401
same,Fold Change (Pre- to Post-op),gene Ablim2,−6.48
same,Fold Change (Pre- to Post-op),gene Acaca,−4.829
same,Fold Change (Pre- to Post-op),gene Acacb,−4.267
same,Fold Change (Pre- to Post-op),gene Ace,−5.246
same,Fold Change (Pre- to Post-op),gene Ache,−7.968
same,Fold Change (Pre- to Post-op),gene Acin1,−3.533
same,Fold Change (Pre- to Post-op),gene Actn1,−3.794
same,Fold Change (Pre- to Post-op),gene Acvr1b,−4.313
same,Fold Change (Pre- to Post-op),gene Acvr2b,−3.139
same,Fold Change (Pre- to Post-op),gene Adam12,−3.327
same,Fold Change (Pre- to Post-op),gene Adam19,−5.06
same,Fold Change (Pre- to Post-op),gene Adam23,−6.411
same,Fold Change (Pre- to Post-op),gene Adamtsl3,−5.144
same,Fold Change (Pre- to Post-op),gene Adamtsl4,−6.749
same,Fold Change (Pre- to Post-op),gene Adcy1,−7.314
same,Fold Change (Pre- to Post-op),gene Adcy9,−4.853
same,Fold Change (Pre- to Post-op),gene Adcyap1r1,−5.913
same,Fold Change (Pre- to Post-op),gene Adhfe1,−4.424
same,Fold Change (Pre- to Post-op),gene Adipoq,−6.67
same,Fold Change (Pre- to Post-op),gene Adrbk2,−4.017
same,Fold Change (Pre- to Post-op),gene Aebp1,−4.872
same,Fold Change (Pre- to Post-op),gene Agap1,−3.615
same,Fold Change (Pre- to Post-op),gene Ago1,−3.623
same,Fold Change (Pre- to Post-op),gene Ago2,−5.249
same,Fold Change (Pre- to Post-op),gene Ahdc1,−5.847
same,Fold Change (Pre- to Post-op),gene Akap2,−5.63
same,Fold Change (Pre- to Post-op),gene Akap12,−8.622
same,Fold Change (Pre- to Post-op),gene Akap13,−8.027
same,Fold Change (Pre- to Post-op),gene Akna,−5.832
same,Fold Change (Pre- to Post-op),gene Alppl2,−5.838
same,Fold Change (Pre- to Post-op),gene Als2,−3.126
same,Fold Change (Pre- to Post-op),gene Amer1,−4.883
same,Fold Change (Pre- to Post-op),gene Amotl1,−4.829
same,Fold Change (Pre- to Post-op),gene Amotl2,−4.67
same,Fold Change (Pre- to Post-op),gene Ampd2,−3.56
same,Fold Change (Pre- to Post-op),gene Angel1,−5.704
same,Fold Change (Pre- to Post-op),gene Ank2,−4.668
same,Fold Change (Pre- to Post-op),gene Ankrd11,−6.322
same,Fold Change (Pre- to Post-op),gene Ankrd35,−5.751
same,Fold Change (Pre- to Post-op),gene Ankrd63,−4.472
same,Fold Change (Pre- to Post-op),gene Anks1,−4.241
same,Fold Change (Pre- to Post-op),gene Anks6,−7.123
same,Fold Change (Pre- to Post-op),gene Ano7,−5.737
same,Fold Change (Pre- to Post-op),gene Ano8,−3.835
same,Fold Change (Pre- to Post-op),gene Antxr1,−3.495
same,Fold Change (Pre- to Post-op),gene Aoc3,−6.132
same,Fold Change (Pre- to Post-op),gene Aox1,−6.358
same,Fold Change (Pre- to Post-op),gene Ap2a1,−3.359
same,Fold Change (Pre- to Post-op),gene Ap3b2,−4.515
same,Fold Change (Pre- to Post-op),gene Apba2,−3.441
same,Fold Change (Pre- to Post-op),gene Apbb1ip,−6.816
same,Fold Change (Pre- to Post-op),gene Apc,−3.693
same,Fold Change (Pre- to Post-op),gene App,−3.172
same,Fold Change (Pre- to Post-op),gene Aqr,−3.528
same,Fold Change (Pre- to Post-op),gene Arfgef2,−3.468
same,Fold Change (Pre- to Post-op),gene Arhgap20,−5.715
same,Fold Change (Pre- to Post-op),gene Arhgap23,−8.447
same,Fold Change (Pre- to Post-op),gene Arhgap31,−3.584
same,Fold Change (Pre- to Post-op),gene Arhgap32,−3.618
same,Fold Change (Pre- to Post-op),gene Arhgef10,−5.663
same,Fold Change (Pre- to Post-op),gene Arhgef10l,−3.258
same,Fold Change (Pre- to Post-op),gene Arhgef11,−4.867
same,Fold Change (Pre- to Post-op),gene Arhgef12,−3.668
same,Fold Change (Pre- to Post-op),gene Arhgef15,−7.458
same,Fold Change (Pre- to Post-op),gene Arhgef17,−4.97
same,Fold Change (Pre- to Post-op),gene Arhgef40,−3.866
same,Fold Change (Pre- to Post-op),gene Arid1a,−5.133
same,Fold Change (Pre- to Post-op),gene Arid3a,−3.299
same,Fold Change (Pre- to Post-op),gene Arid5a,−3.254
same,Fold Change (Pre- to Post-op),gene Armcx4,−7.289
same,Fold Change (Pre- to Post-op),gene Arsb,−3.029
same,Fold Change (Pre- to Post-op),gene Asap2,−3.409
same,Fold Change (Pre- to Post-op),gene Ash1l,−4.598
same,Fold Change (Pre- to Post-op),gene Asic2,−3.543
same,Fold Change (Pre- to Post-op),gene Astn2,−4.06
same,Fold Change (Pre- to Post-op),gene Atf7,−8.82
same,Fold Change (Pre- to Post-op),gene Atf7ip,−5.458
same,Fold Change (Pre- to Post-op),gene Atp1a3,−7.338
same,Fold Change (Pre- to Post-op),gene Atp2a2,−3.186
same,Fold Change (Pre- to Post-op),gene Atp2a3,−3.405
same,Fold Change (Pre- to Post-op),gene Atp2b4,−4.839
same,Fold Change (Pre- to Post-op),gene Atp10a,−3.252
